The results in this text go back to PMC4548153.

The chains behind the UniProt entries cited, without tags or fusion partners. Where a name states a change or a piece, a line headed by the entry shows the natural chain unless it says otherwise. A line that says so, or that is headed by a name, gives the form on record, which may keep a tag or linker.
UniProt Q9UKV8: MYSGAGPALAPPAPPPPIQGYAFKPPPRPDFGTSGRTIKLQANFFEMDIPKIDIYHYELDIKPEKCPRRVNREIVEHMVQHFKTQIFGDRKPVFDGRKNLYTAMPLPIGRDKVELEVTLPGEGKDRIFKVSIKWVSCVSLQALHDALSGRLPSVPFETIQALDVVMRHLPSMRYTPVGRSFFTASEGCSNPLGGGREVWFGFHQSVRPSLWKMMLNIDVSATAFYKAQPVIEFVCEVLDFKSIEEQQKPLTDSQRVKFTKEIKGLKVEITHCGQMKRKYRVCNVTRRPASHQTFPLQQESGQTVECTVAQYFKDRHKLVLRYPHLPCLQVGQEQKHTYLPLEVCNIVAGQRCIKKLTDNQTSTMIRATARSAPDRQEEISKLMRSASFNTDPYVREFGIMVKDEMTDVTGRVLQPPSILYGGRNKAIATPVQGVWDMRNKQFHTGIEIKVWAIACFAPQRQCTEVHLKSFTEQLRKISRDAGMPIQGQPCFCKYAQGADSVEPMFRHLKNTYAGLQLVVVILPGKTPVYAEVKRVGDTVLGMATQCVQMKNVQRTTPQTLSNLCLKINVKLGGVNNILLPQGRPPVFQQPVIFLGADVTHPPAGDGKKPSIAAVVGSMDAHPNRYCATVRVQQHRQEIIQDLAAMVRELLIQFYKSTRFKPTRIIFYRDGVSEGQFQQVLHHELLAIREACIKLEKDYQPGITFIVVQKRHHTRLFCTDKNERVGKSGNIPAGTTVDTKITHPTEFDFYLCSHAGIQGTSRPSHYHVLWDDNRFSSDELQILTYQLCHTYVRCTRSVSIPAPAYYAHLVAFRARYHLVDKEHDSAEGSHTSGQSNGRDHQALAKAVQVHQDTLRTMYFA
UniProt P06241: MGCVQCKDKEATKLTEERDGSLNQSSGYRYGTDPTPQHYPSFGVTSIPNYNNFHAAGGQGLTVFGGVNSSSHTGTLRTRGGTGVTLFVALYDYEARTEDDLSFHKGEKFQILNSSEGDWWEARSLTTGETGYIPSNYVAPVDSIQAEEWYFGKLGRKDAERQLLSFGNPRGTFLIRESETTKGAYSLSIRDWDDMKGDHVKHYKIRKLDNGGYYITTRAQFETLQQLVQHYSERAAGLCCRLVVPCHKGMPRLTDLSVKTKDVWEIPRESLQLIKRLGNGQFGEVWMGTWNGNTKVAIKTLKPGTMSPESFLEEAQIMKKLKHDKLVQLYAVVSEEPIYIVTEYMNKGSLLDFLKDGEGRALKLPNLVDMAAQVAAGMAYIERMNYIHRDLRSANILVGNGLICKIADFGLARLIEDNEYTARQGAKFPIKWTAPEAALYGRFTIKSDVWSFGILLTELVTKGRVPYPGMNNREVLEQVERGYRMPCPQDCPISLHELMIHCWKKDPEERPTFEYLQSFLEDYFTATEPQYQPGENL
Myc/His-tagged hnRNP A2 (O88569-2, form named): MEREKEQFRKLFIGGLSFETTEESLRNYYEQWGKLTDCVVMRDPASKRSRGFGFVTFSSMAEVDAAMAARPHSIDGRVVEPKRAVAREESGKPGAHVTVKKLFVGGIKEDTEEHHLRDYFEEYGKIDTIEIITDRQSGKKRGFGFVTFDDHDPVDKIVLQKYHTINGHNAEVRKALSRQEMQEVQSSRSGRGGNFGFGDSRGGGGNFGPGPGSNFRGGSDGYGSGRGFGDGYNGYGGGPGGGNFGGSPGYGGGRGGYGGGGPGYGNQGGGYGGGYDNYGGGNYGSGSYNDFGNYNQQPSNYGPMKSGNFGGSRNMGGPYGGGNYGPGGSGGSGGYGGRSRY

Assay [1] addresses FLAG/HA-tagged Ago2 (UniProt Q9UKV8). Kind of assay: co-IP; FLAG/HA-Ago2 precipitated with anti-FLAG M2 magnetic beads from lysate of Oli-neu cells co-transfected with FLAG/HA-Ago2 and eGFP or FynWT; Western blot for pTyr (4G10), HA, active Fyn (SrcpY418) and GAPDH. On the technique in general: In western blotting, separated proteins are transferred to a membrane and probed.
Assay [2] has the same target. Kind of assay: co-IP; FLAG/HA-Ago2 precipitated with anti-FLAG M2 magnetic beads from lysate of Oli-neu cells overexpressing FLAG/HA-Ago2 and A2-Myc/His or eGFP; 2 h at 4°C, washed three times with lysis buffer (50 mM Tris, 150 mM NaCl, 1 mM EDTA, 1% Triton X-100), eluted with FLAG peptide; Western blot (HA, Myc, GAPDH, β-Actin).
For assay [3], the target named is Myc- and His-tagged Ago2 (UniProt Q9UKV8). Kind of assay: pull-down; His isolation of Ago2-Myc/His with Dynabeads His Tag Isolation and Pulldown (cobalt) beads from lysate of HEK293T cells co-transfected with eGFP, FynWT or Fyn+; 30 min at RT, 300 mM NaCl, 150 mM imidazole, 1% Triton X100; washes with 500 mM and 2 M imidazole; Western blot for pTyr, Myc and active Fyn (Src418).

These are yes or no findings as the source states them, for the method shown. Binding seen in cells or lysates may run through a third protein. Some binding calls cover weakened binding; strength is not graded here.

On to “wild-type Fyn (FynWT), active Fyn, in Oli-neu cells (from UniProt P06241 1-537) (enzyme)”, for which, in assay [1], the binding entry was “binds”.
As to “Myc/His-tagged hnRNP A2 (from UniProt O88569-2 1-341)”, the binding entry in assay [2] was “binds”.
Take “wild-type Fyn (FynWT), active Fyn, in HEK293T cells (from UniProt P06241 1-537) (enzyme)”: in assay [3], the binding result is “binds”.
